Experimental data published in patent publication US20140120106A1, “Stimulation of Arterial Collateral Growth and Lymphogenesis” (YALE UNIVERSITY, priority 2011, published 2014).

Tested on: VE-cadherin-tTA/RAF1S259A double transgenic embryos
Assay: Endothelial-specific RAF1S259A transgenic mice (Noonan syndrome mouse model)
Type: in vivo
From the text: Human wild type Raf1 and RAF1S259A plasmids were gifts of Dr. Guri Tzivion (Wayne State University). To generate RAF1S259A transgenic mice, hRAF1S259A was cloned to NotI+PstI sites of pBI-G Tet-off vector (Clontech). TRE-RAF1S259A transgenic mouse line was then generated at the Yale Animal Genomics Services center. VE-cadherin-tT A mice (Sun, et al. Proc Natl Acad Sci USA 102:128-133 (2005)) were from W. Sessa lab (Yale). Time-mating was setup by intercross of male TRE-RAF1 S259A mice with VE-cadherin-tTA female mice. For paraffin and frozen sections, embryos were fixed in 4% paraformaldehyde for overnight at 4° C.
Primary mouse endothelial cells were isolated from E12.5 embryos using a protocol similar to that described by Ren, et al. J Clin Invest 120:1217-1228 (2010). Briefly, E12.5 embryos were harvested, minced finely with scissors, and then digested in 25 ml collagenase 0.2% (w/v) at 37° C. for 20 minutes. The crude cell preparation was pelleted and resuspended in DPBS. The cell suspension was incubated with CD31-coated beads (Invitrogen) at room temperature for 10 minutes with rotation. Using a magnetic separator, the bead-bound cells were recovered, washed with DMEM-20% FBS. The cells were then used for gene expression analysis by qPCR.

## RAF1 S259A: RAF1 Ser259 to Ala259 mutant, not inhibited by AKT; expressed from lentivirus, adenovirus or endothelial transgene
E12.5 or E14.5 embryos versus littermate controls
  LEC proliferation (number of Ki67+/PROX1+ cells): No significant differences
E14.5 S259A embryos versus control littermates
  diameter of skin lymphatic vessels: twice
S259A embryos by E14.5 versus littermate controls
  cardinal vein size (lumen area): significantly smaller
S259A embryos, by E15.5
  lethality: ~100%
